{"source": "PubChem BioAssay AID493014", "about": "(National Center for Advancing Translational Sciences (NCATS), 2011)", "note": "Hit rate of the full screen: of about 340,000 compounds, about 170 (0.05%) were called active. Only results without a clear call are listed here; the source files them as inconclusive. Calls come from the whole dose curve; as a rule, active = well fitted inhibition curve with a large enough effect in the signal ratio, with a control signal flat (not every such curve was filed as active); inconclusive = small, poorly fitted or top-dose-only effect, or effect the other way, or a change in a side signal; inactive = flat fitted curve, though single readings scatter; the % refers to the signal ratio. Potency is the fitted concentration of half-maximal effect.", "data": [{"assay": "qHTS Assay to Find Inhibitors of Chronic Active B-Cell Receptor Signaling;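 for activity change, negative = inhibition: plate controls were basal doxycycline-induced cells for no effect and cells given 10 µM MG132 for full effect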", "details": "ABC-DLBCL IkBa-CBG/CBR reporter, luminescence ratio (green luciferase fused to IkBa over red control in TMD8 lymphoma cells), 4 h; activity change, negative = inhibition: at 46.1 µM (top of the series)", "source_text": "NIH Molecular Libraries Probe Production Network [MLPCN] NIH Chemical Genomics Center [NCGC] MLPCN Grant: 1 R03 DA031086-01A1 PI Name: Dr. R. Eric Davis NCGC Assay Overview: Diffuse large B-cell lymphoma (DLBCL) is the most common category of non-Hodgkin lymphoma, with ~20,000 new cases per year in the United States. DLBCL should be regarded as a collection of different neoplasms. Microarray gene expression analysis has defined two principal types of DLBCL, named for their similarity to normal B cell stages or activation states: a germinal center B-cell (GCB) type, and an activated B-cell (ABC) type. In ABC-DLBCL, a constitutive high-level activity of the NF-kappaB family of transcription factors has been observed (1) and NF-kappaB target genes are more highly expressed in ABC primary tumors than in GCB tumors. Functional studies have shown a constitutive high-level activity of the IkappaB (inhibitor of kappa-B) kinase (IKK) complex. […] Further analysis of DLBCL primary tumors for NF-kappaB target gene expression imply that although CARD11 is required for constitutive IKK activity in all ABC-DLBCL lines, mutations in CARD11 may be the root cause of IKK activation only in lines or tumors with such mutations. In other words, CARD11 mutations may explain NF-kappaB activation in only 10% of ABC-DLBCL cases. […] This process has been termed 'chronic active BCR signaling' (CABS). The goal of this screen is to find small-molecule inhibitors of the CABS pathway found in ABC-DLBCL lines using a cell-based assay that measures IkappaBalpa stability, which has already been extensively validated in the OCI-Ly3 line (PubChem AID:445; REF: 4). […] The assay uses green (CBG68) and red (CBR) emitting beetle luciferases [Chroma-GloTM developed by Promega Corp.] where the green luciferase is fused to IkappaBalpha and the red luciferase is present in its native state. Both luciferase genes are stably present in the TMD8 human ABC DLBCL cell line, but their expression is under the control of tetracycline-inducible promoters. Following the addition of doxycycline to induce expression of the luciferases, the green luminescence in control cultures rises only slowly because the CBG fusion partner IkappaBalpha is targeted by IKK activity for rapid degradation. In contrast, green luminescence rises rapidly in the presence of proteasome inhibitors or IKK inhibitors. The rise in red luminescence of CBR is not affected by proteasome or IKK inhibitors, and serves as normalization for cell number and nonspecific effects. Compounds were screened as a concentration-titration series that ranged from 46 uM to 3 nM.\nNCGC Assay Protocol Summary: Cells were seeded in 1536-well plates at 5000 cells/4uL in IMDM medium containing 0.5% FBS, w/o phenol red, 1% penicillin/streptomycin. Then, 23 nL of compounds or DMSO were delivered to each well using a pin tool. One uL 20ng/ml doxycycline was then dispensed into white solid 1536-well plates and the plates were incubated at 37C/5% C02 in a cell incubator for 4 hrs. Then 4 uL luminescent substrate mix (in-house prepared: 150 mM Tris-Cl, pH 7.6, 3 mM MgCl2, 1% Triton X-100, 5 mM DTT, 0.2 mM CoA, 0.15 mM ATP, 5 mM D-luciferin, final concentrations) was added to each well. The plate was incubated at r.t. for 10-15 min. The plates were measured on a ViewLux plate reader for green luminescence (540/20 nm filter) and red luminescence (618/8 nm filter). The green and red luminescent signals were corrected for red and green luminescence filter overlap using previously determined filter calibration constants (determined using the procedure outlined in the Promega Technical Manual; REF 4). The %Activity was determined from the ratio of corrected green/red luminescent values. MG132 were used as control. […] Red luminescent %Activity was normalized to the difference between red luminesence in basal cells (0%Activity) and zero luminescence (-100% Activity). […]", "values": [{"smiles": "O=[N+]([O-])c1ccc2c(c1)C=Nc1ccccc1O2", "Potency": "inconclusive: 31.6 µM"}, {"smiles": "COc1ccccc1OP(C)(=O)Nc1ccc(C)cc1", "note": "(configuration not stated)", "Potency": "inconclusive: 2.82 µM"}, {"smiles": "CCN(CC)CCCOC(=O)C(O)(c1ccccc1)c1ccccc1", "activity change, negative = inhibition": "inconclusive: 5.94%"}, {"smiles": "CC1=C2N=C(C=C3N=C(C(C)=C4[N-][C@@](C)([C@@H]5N=C1[C@](C)(CCC(=O)NC[C@@H](C)OP(=O)([O-])O[C@H]1[C@@H](O)[C@@H](n6cnc7cc(C)c(C)cc76)O[C@@H]1CO)[C@H]5CC(N)=O)[C@@](C)(CC(N)=O)[C@@H]4CCC(N)=O)[C@@](C)(CC(N)=O)[C@@H]3CCC(N)=O)C(C)(C)[C@@H]2CCC(N)=O.[C-]#N.[Co+3]", "Potency": "inconclusive: 11.6 µM"}, {"smiles": "CC1=NCCc2c1[nH]c1ccccc21.O=[N+]([O-])c1cc([N+](=O)[O-])c(O)c([N+](=O)[O-])c1", "Potency": "inconclusive: 11.6 µM"}, {"smiles": "CP(=O)(Nc1ccccc1)Oc1ccc(F)cc1", "note": "(configuration not stated)", "Potency": "inconclusive: 2.51 µM"}, {"smiles": "COc1ccc(OP(C)(=O)Nc2cccc(Br)c2)cc1", "note": "(configuration not stated)", "Potency": "inconclusive: 7.94 µM"}, {"smiles": "O=C(OCCCN1CCCC1)C(O)(c1ccccc1)C1CCCCC1", "note": "(configuration not stated)", "activity change, negative = inhibition": "inconclusive: -16.7%"}, {"smiles": "CP(=O)(Oc1ccccc1)N1CCOC1=O", "note": "(configuration not stated)", "Potency": "inconclusive: 3.16 µM"}, {"smiles": "COc1ccc(OP(C)(=O)Nc2ccc(Br)cc2)cc1", "note": "(configuration not stated)", "Potency": "inconclusive: 20.6 µM"}, {"smiles": "COc1ccccc1OP(C)(=O)Nc1ccc(Br)cc1", "note": "(configuration not stated)", "Potency": "inconclusive: 14.1 µM"}, {"smiles": "O=[N+]([O-])c1cc([N+](=O)[O-])c(Nc2ccccn2)c([N+](=O)[O-])c1", "Potency": "inconclusive: 35.5 µM"}]}]}
